Assay results reported in the supplement of paper PMC8967900.

Tests used:
Experiment in all cases: selective drug sensitivity score (sDSS, relative to normal bone marrow) (sDSS (score)); higher = more potent and effective on the cell line relative to normal bone marrow cells
Conditions in all cases: 72 h
380 = test system: 380
697 = test system: 697
ALL-PO = test system: ALL-PO
ALL-SIL = test system: ALL-SIL
CCRF-CEM = test system: CCRF-CEM
CCRF-HSB2 = test system: CCRF-HSB2
COG-LL-317 = test system: COG-LL-317
COG-LL-319h = test system: COG-LL-319h
COG-LL-332h = test system: COG-LL-332h
COG-LL-355h = test system: COG-LL-355h
COG-LL-394h = test system: COG-LL-394h
COG-LL-402h = test system: COG-LL-402h
DND-41 = test system: DND-41
HAL-01 = test system: HAL-01
HPB-ALL = test system: HPB-ALL
JURKAT = test system: JURKAT
KARPAS-45 = test system: KARPAS-45
KASUMI-10 = test system: KASUMI-10
KASUMI-2 = test system: KASUMI-2
KASUMI-9 = test system: KASUMI-9
KOPN-8 = test system: KOPN-8
LC4-1 = test system: LC4-1
MHH-CALL-2 = test system: MHH-CALL-2
MHH-CALL-3 = test system: MHH-CALL-3
MHH-CALL-4 = test system: MHH-CALL-4
MN-60 = test system: MN-60
MOLT-14 = test system: MOLT-14
MOLT-16 = test system: MOLT-16
MOLT-4 = test system: MOLT-4
NALL-1 = test system: NALL-1
NALM-16 = test system: NALM-16
NALM-6 = test system: NALM-6
P12-ICHIKAWA = test system: P12-ICHIKAWA
P30-OHKUBO = test system: P30-OHKUBO
PEER = test system: PEER
PF-382 = test system: PF-382
RCH-ACV = test system: RCH-ACV
REH = test system: REH
RPMI-8402 = test system: RPMI-8402
SEM cells = test system: SEM cells
SUP-B15 = test system: SUP-B15
TANOUE = test system: TANOUE
TMD5 = test system: TMD5
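Also: ALL cell lines in 384-well plates, five doses spanning 10,000-fold, each plate scaled between vehicle and 100 µmol/L benzalkonium chloride controls, sDSS an adapted area-under-curve metric.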

With C[C@@H]1C[C@H](N)C[C@H](c2ccncc2NC(=O)c2ccc(F)c(-c3c(F)cccc3F)n2)C1 [PIM-447] (top concentration 10000 nM) the “selective drug sensitivity score” value 380 was 19.7, the “selective drug sensitivity score” value 697 was 2.42 and the “selective drug sensitivity score” value (ALL-PO) was 6.42. For the same molecule, the “selective drug sensitivity score” value (ALL-SIL) was 4.12, the “selective drug sensitivity score” value (CCRF-CEM) was -5.38 and the “selective drug sensitivity score” value (CCRF-HSB2) was 8.92. For the same molecule, the “selective drug sensitivity score” value (COG-LL-317) was -4.58, the “selective drug sensitivity score” value (COG-LL-319h) was -0.48 and the “selective drug sensitivity score” value (COG-LL-332h) was -0.08. The “selective drug sensitivity score” value (COG-LL-355h) was 7.92, the “selective drug sensitivity score” value (COG-LL-394h) was 1.42 and the “selective drug sensitivity score” value (COG-LL-402h) was -5.18. For the same molecule, the “selective drug sensitivity score” value (DND-41) was 4.62, the “selective drug sensitivity score” value (HAL-01) was 1.72 and the “selective drug sensitivity score” value (HPB-ALL) was -5.78. For the same molecule, the “selective drug sensitivity score” value (JURKAT) was -5.88, the “selective drug sensitivity score” value (KARPAS-45) was -1.78 and the “selective drug sensitivity score” value (KASUMI-10) was -3.38. The “selective drug sensitivity score” value (KASUMI-2) was 9.12, the “selective drug sensitivity score” value (KASUMI-9) was -3.68 and the “selective drug sensitivity score” value (KOPN-8) was 4.92. For the same molecule, the “selective drug sensitivity score” value (LC4-1) was 1.72, the “selective drug sensitivity score” value (MHH-CALL-2) was 1.72 and the “selective drug sensitivity score” value (MHH-CALL-3) was -0.48. For the same molecule, the “selective drug sensitivity score” value (MHH-CALL-4) was 2.52, the “selective drug sensitivity score” value (MN-60) was 0.32 and the “selective drug sensitivity score” value (MOLT-14) was -2.28. The “selective drug sensitivity score” value (MOLT-16) was -5.78, the “selective drug sensitivity score” value (MOLT-4) was -6.18 and the “selective drug sensitivity score” value (NALL-1) was -1.78. For the same molecule, the “selective drug sensitivity score” value (NALM-16) was -5.98, the “selective drug sensitivity score” value (NALM-6) was -5.98 and the “selective drug sensitivity score” value (P12-ICHIKAWA) was -5.68. The “selective drug sensitivity score” value (P30-OHKUBO) was -1.78, the “selective drug sensitivity score” value (PEER) was -2.38 and the “selective drug sensitivity score” value (PF-382) was -4.18. For the same molecule, the “selective drug sensitivity score” value (RCH-ACV) was 11.3, the “selective drug sensitivity score” value (REH) was 5.62 and the “selective drug sensitivity score” value (RPMI-8402) was -1.88. For the same molecule, the “selective drug sensitivity score” value (SEM cells) was -3.68, the “selective drug sensitivity score” value (SUP-B15) was -1.58 and the “selective drug sensitivity score” value (TANOUE) was -6.48. The “selective drug sensitivity score” value (TMD5) was -2.78.
